Non-standard residues stand in square brackets, D forms with d. βAla = NCCC(=O)O
Experiment: general procedure: Fmoc solid-phase peptide synthesis; 2-chlorotrityl resin; DIPCDI/HOBt
Conditions: whole synthesis, MeCN (+0.07% TFA) in H2O (+0.1% TFA) gradient, ES-MS for molecular weight

Substance | crude HPLC purity
Ac-[βAla]HSH-OH | greater than 90%
Ac-[βAla]HCH-OH | greater than 85%

Reference: USRE45610 (dated 2015)
